{
  "source": "patent US20080064643A1",
  "about": "(priority 2004, published 2008)",
  "data": [
    {"experiment": "general procedure: Fmoc solid-phase peptide synthesis; Rink Amide MBHA; HOBt-TBTU, DIPEA; acyl chloride (SOCl2) for difficult acylations", "conditions": "whole synthesis, scale ~50 μmol", "units": {"isolated mass": "mg"}, "values": [
      {"substance": "Ac-Arg-Asp-Val-AzaVal-Pro-Gly-NH2", "isolated mass": 11.7},
      {"substance": "H-Arg-Gly-AzaVal-Val-Pro-Gly-NH2 (VVPG; H-Arg-Gly-Aza N-terminal; C-terminal amide; printed: Val-Val-Pro-Gly-)", "isolated mass": 4.9},
      {"substance": "Ac-Arg-Asp-Azagly-Val-Pro-Gly-NH2", "isolated mass": 18.2},
      {"substance": "Ac-Arg-Asp-AzaLeu-Val-Pro-Gly-NH2 (LVPG; Ac-Arg-Asp-Aza N-terminal; C-terminal amide; printed: Leu-Val-Pro-Gly-)", "isolated mass": 12.00}
    ]},
    {"experiment": "general procedure: Fmoc solid-phase peptide synthesis; Rink amide MBHA; HOBt-TBTU, DIPEA; acyl chloride (SOCl2) for difficult acylations", "conditions": "whole synthesis, scale ~50 μmol", "units": {"isolated mass": "mg"}, "values": [
      {"substance": "Ac-Gly-Pro-SP30-Arg-NH2", "isolated mass": 19.0},
      {"substance": "PAM9-Asp-Val-Val-Beta2-NH2", "isolated mass": 19.0},
      {"substance": "PAM9-SP02-Beta2-Thr-NH2", "isolated mass": 9.1}
    ]}
  ]
}
